Results are given in words; binding and its absence hold for the method and conditions named. Some results given as binding are weak or reduced against the parent protein; the word gives no strength.
T1: CAPRIN-1 protein on the cell membrane surface of cancer cells (UniProt Q14444)
T1 sequence (looked up): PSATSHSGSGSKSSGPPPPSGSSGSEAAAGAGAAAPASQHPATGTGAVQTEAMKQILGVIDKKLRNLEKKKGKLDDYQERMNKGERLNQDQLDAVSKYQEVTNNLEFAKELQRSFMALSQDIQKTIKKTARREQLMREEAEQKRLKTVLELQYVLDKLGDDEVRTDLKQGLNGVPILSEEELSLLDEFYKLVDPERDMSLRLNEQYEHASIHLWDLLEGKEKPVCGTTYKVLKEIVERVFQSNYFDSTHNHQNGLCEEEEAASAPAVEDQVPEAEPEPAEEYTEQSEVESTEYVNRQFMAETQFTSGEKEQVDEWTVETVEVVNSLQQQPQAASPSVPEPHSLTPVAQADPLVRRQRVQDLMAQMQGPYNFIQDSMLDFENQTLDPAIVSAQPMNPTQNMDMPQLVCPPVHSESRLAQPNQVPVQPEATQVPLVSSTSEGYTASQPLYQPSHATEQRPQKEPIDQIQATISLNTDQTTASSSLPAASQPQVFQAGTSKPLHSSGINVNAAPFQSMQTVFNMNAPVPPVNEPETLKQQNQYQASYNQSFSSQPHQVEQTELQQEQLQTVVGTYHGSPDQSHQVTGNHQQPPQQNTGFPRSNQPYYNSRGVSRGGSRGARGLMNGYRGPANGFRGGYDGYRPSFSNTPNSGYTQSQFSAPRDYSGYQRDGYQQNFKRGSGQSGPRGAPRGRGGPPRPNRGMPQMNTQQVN


Target: T1, CAPRIN-1 protein on the cell membrane surface of cancer cells
Assay: flow cytometry

Row | binding | Binder
1 | binds | humanized anti-CAPRIN-1 monoclonal antibody #2 (antibody, human IgG1, V domains shown) VH: EQSLVESGGGLVQPGGSLRLSCAASGFSLSSHSLGWVRQAPGKGLEWIGDIRSGGSAYYANWAKGRFTISRDNSKNTLYLQMNSLRAEDTAVYYCTRTNGPSDLTNRLDLWGQGTLVTVSS VL: QVLTQSPSSLSASVGDRVTINCQASQSLYNNENLAWFQQKPGKVPKRLIYGASTLASGVSSRFSGSGSGTEFTLTISSLQCEDFAIYYCLGEFSCGSADCFAFGGGTKVEIK
2 | binds | Humanized monoclonal antibody #37 (antibody, human IgG1, V domains shown) VH: EVQLVESGGGLVQPGGSLRLSCAASGFSLSSHSLGWVRQAPGKGLEWIGDIRSGGSAYYANWAKGRFTISRDNSKNTLYLQMNSLRAEDTAVYFCTRTNGPSDLTNRLDLWGQGTLVTVSS VL: QVLTQSPSSLSASVGDRVTINCQASQSLYNNENLAWFQQKPGKVPKRLIYGASTLASGVSSRFSGSGSGTEFTLTISSLQCEDFAIYYCLGEFSCGSADCFAFGGGTKVEIK
3 | binds | Humanized monoclonal antibody #41 (antibody, human IgG1, V domains shown) VH: EVQLVESGGGLVQPGGSLRLSCAASGFSLSSHSLGWVRQAPGKGLEWIGDIRSGGSAYYANWAKGRFTISRDNSKNTLYLQMNSLRAEDTAVYFCTRTNGPSDLTNRLDLWGQGTLVTVSS VL: EQVLTQSPSSLSASVGDRVTINCQASQSLYNNENLAWFQQKPGKVPKRLIYGASTLASGVSSRFSGSGSGTEFTLTISNLQPEDFAIYYCLGEFSCGSADCFAFGGGTKVEIK
4 | binds | Humanized monoclonal antibody #38 (antibody, human IgG1, V domains shown) VH: EVQLVESGGGLVQPGGSLRLSCAASGFSLSSHSLGWVRQAPGKGLEWIGDIRSGGSAYYANWAKGRFTISRDNSKNTLYLQMNSLRAEDTAVYYCTRTNGPSDLTNRLDLWGQGTLVTVSS VL: EQVLTQSPSSLSASVGDRVTINCQASQSLYNNENLAWFQQKPGKVPKRLIYGASTLASGVSSRFSGSGSGTEFTLTISNLQPEDFAIYYCLGEFSCGSADCFAFGGGTKVEIK
5 | binds | Humanized monoclonal antibody #40 (antibody, human IgG1, V domains shown) VH: EVQLVESGGGLVQPGGSLRLSCAASGFSLSSHSLGWVRQAPGKGLEWIGDIRSGGSAYYANWAKGRFTISRDNSKNTLYLQMNSLRAEDTAVYYCTRTNGPSDLTNRLDLWGQGTLVTVSS VL: EIVLTQSPSSLSASVGDRVTINCQASQSLYNNENLAWFQQKPGKVPKRLIYGASTLASGVSSRFSGSGSGTEFTLTISNLQPEDFATYYCLGEFSCGSADCFAFGGGTKVEIK
6 | binds | humanized anti-CAPRIN-1 monoclonal antibody #6 (antibody, human IgG1, V domains shown) VH: EQSLVESGGGLVQPGGSLRLSCAASGFSLSSHSLGWVRQAPGKGLEWIGDIRSGGSAYYANWAKGRFTISRDNSKNTLYLQMNSLRAEDTAVYYCTRTNGPSDLTNRLDLWGQGTLVTVSS VL: QVLTQSPSSLSASVGDRVTINCQASQSLYNNENLAWFQQKPGKVPKRLIYGASTLASGVSSRFSGSGSGTEFTLTISSLQCEDFAIYYCLGEFSCGSADCFAFGGGTKVEIK
7 | binds | humanized anti-CAPRIN-1 antibody #69 (antibody, human IgG1, V domains shown) VH: EVQLVESGGGLVQPGGSLRLSCAASGFSLSSHSLGWVRQAPGKGLEWIGDIRSGGSAYYANWAKGRFTISRDNSKNTLYLQMNSLRAEDTAVYYCTRTNGPSDLTNRLDLWGQGTLVTVSS VL: QVLTQSPSSLSASVGDRVTINCQASQSLYNNENLAWFQQKPGKVPKRLIYGASTLASGVSSRFSGSGSGTEFTLTISSLQCEDFAIYYCLGEFSCGSADCFAFGGGTKVEIK
8 | binds | Humanized monoclonal antibody #36 (antibody, human IgG1, V domains shown) VH: EVQLVESGGGLVQPGGSLRLSCAASGFSLSSHSLGWVRQAPGKGLEWIGDIRSGGSAYYANWAKGRFTISRDNSKNTLYLQMNSLRAEDTAVYYCTRTNGPSDLTNRLDLWGQGTLVTVSS VL: QVLTQSPSSLSASVGDRVTINCQASQSLYNNENLAWFQQKPGKVPKRLIYGASTLASGVSSRFSGSGSGTEFTLTISSLQCEDFAIYYCLGEFSCGSADCFAFGGGTKVEIK
9 | binds | Humanized monoclonal antibody #39 (antibody, human IgG1, V domains shown) VH: EVQLVESGGGLVQPGGSLRLSCAASGFSLSSHSLGWVRQAPGKGLEWIGDIRSGGSAYYANWAKGRFTISRDNSKNTLYLQMNSLRAEDTAVYFCTRTNGPSDLTNRLDLWGQGTLVTVSS VL: EIVLTQSPSSLSASVGDRVTINCQASQSLYNNENLAWFQQKPGKVPKRLIYGASTLASGVSSRFSGSGSGTEFTLTISNLQPEDFATYYCLGEFSCGSADCFAFGGGTKVEIK
10 | binds | Humanized monoclonal antibody #9 (antibody, human IgG1, V domains shown) VH: AVTLDESGGGLQTPGGALSLVCKASGFTFSGYDMLWVRQAPGKGLEWVAGIGSTGGGTDYGAAVKGRATISRDNGQSTVRLQLNNLRAEDTATYYCAKVAGGCNSGYCRDSPGSIDAWGHGTEVIVS VL: AVTQQPASVSANPGETVKITCSGGGSRNYYGWYQQKSPGSVPVTVIYYDDQRPSNIPSRFSGALSGSTSTLTITGVQADDEAVYFCGSADSNTYEGSFGAGTTLTVL
11 | binds | humanized anti-CAPRIN-1 antibody #42 (antibody, human IgG1, V domains shown) VH: AVTLDESGGGLQTPGGALSLVCKASGFTFSGYDMLWVRQAPGKGLEWVAGIGSTGGGTDYGAAVKGRATISRDNGQSTVRLQLNNLRAEDTATYYCAKVAGGCNSGYCRDSPGSIDAWGHGTEVIVS VL: AVTQQPASVSANPGETVKITCSGGGSRNYYGWYQQKSPGSVPVTVIYYDDQRPSNIPSRFSGALSGSTSTLTITGVQADDEAVYFCGSADSNTYEGSFGAGTTLTVL
12 | binds | Humanized monoclonal antibody #13 (antibody, human IgG1, V domains shown) VH: GAELVRSGASVKMSCKASGYSFTDYNMYWVKQTPGQGLEWIGYIYPGNGGTNYNQKFKGKATLTADTSSSTAYMQISSLTSEDSAVYFCARDYDDGGYAMDYWGQGTTVTVSS VL: DIQMTQSPASLSASVGETVTITCRASGNIHNYLTWYQQKQGKSPQLLVYNAKTLADGVPSRFSGSGSGTQYSLKINRLQPEDFGSYYCQHFWNIPWTFGGGTKLNSR
13 | binds | humanized anti-CAPRIN-1 antibody #46 (antibody, human IgG1, V domains shown) VH: GAELVRSGASVKMSCKASGYSFTDYNMYWVKQTPGQGLEWIGYIYPGNGGTNYNQKFKGKATLTADTSSSTAYMQISSLTSEDSAVYFCARDYDDGGYAMDYWGQGTTVTVSS VL: DIQMTQSPASLSASVGETVTITCRASGNIHNYLTWYQQKQGKSPQLLVYNAKTLADGVPSRFSGSGSGTQYSLKINRLQPEDFGSYYCQHFWNIPWTFGGGTKLNSR
14 | binds | Humanized monoclonal antibody #19 (antibody, human IgG1, V domains shown) VH: EVQLHQFGAELVKPGASVKISCKASGYTFTDYNMDWVKQSHGKSLEWIGDINPNYDSTSYNQKFKGKATLTVDKSSSTAYMELRSLTSEDTAVYYCARSRSYDYEGFAYWGQGTLVTVSA VL: DIQMTQSPASLSASVGETVTITCRASGNIHNYLAWYQQKQGKSPQLLVYNAKTLADGVPSRFSGSGSGTQYSLKINSLQPEDFGSYYCQHFWSTLTFGAGTKLELKR
15 | binds | humanized anti-CAPRIN-1 antibody #52 (antibody, human IgG1, V domains shown) VH: EVQLHQFGAELVKPGASVKISCKASGYTFTDYNMDWVKQSHGKSLEWIGDINPNYDSTSYNQKFKGKATLTVDKSSSTAYMELRSLTSEDTAVYYCARSRSYDYEGFAYWGQGTLVTVSA VL: DIQMTQSPASLSASVGETVTITCRASGNIHNYLAWYQQKQGKSPQLLVYNAKTLADGVPSRFSGSGSGTQYSLKINSLQPEDFGSYYCQHFWSTLTFGAGTKLELKR
16 | binds | Humanized monoclonal antibody #30 (antibody, human IgG1, V domains shown) VH: GPDLVKPGASVKISCKASGYSFTAYYMHWVKQSHGKSLEWIGRVNPNNGGTTYNQKFKGKAILTVDKSSSTAYMELRSLTFEDSAVYYCARRIYYGYFDYWGQGTTVTVSS VL: AFFAVSLGQRATISCKASQSVDYDGDSYMNWYQQKPGQPPKLLIYVASNLESGVPARFSGSGSGTDFTLNIHPVEEEDAATYYCQQSNEDPYTFGGGTKLEIKQ
17 | binds | humanized anti-CAPRIN-1 antibody #63 (antibody, human IgG1, V domains shown) VH: GPDLVKPGASVKISCKASGYSFTAYYMHWVKQSHGKSLEWIGRVNPNNGGTTYNQKFKGKAILTVDKSSSTAYMELRSLTFEDSAVYYCARRIYYGYFDYWGQGTTVTVSS VL: AFFAVSLGQRATISCKASQSVDYDGDSYMNWYQQKPGQPPKLLIYVASNLESGVPARFSGSGSGTDFTLNIHPVEEEDAATYYCQQSNEDPYTFGGGTKLEIKQ
18 | binds | Humanized monoclonal antibody #14 (antibody, human IgG1, V domains shown) VH: DAELVKPGASVKISCKASGYTFTDHSIHWVQQKPEQGLEWIGYISPGNGNIKYNEKFKGKATLTADKSSSTAYMQLNSLTSEDSAVYFCKRSLGRGGPYYFDYWGQGTTVTVSS VL: DIVLTQAAPSLPVTPGESVSISCRSSKSLLHSNGNTYLYWFLQRPGQSPQLLIYRMSNLASGVPDRFSGSGSGTAFTLRISRVEAEDVGVYYCMQHREYPVTFGSGPN
19 | binds | humanized anti-CAPRIN-1 antibody #47 (antibody, human IgG1, V domains shown) VH: DAELVKPGASVKISCKASGYTFTDHSIHWVQQKPEQGLEWIGYISPGNGNIKYNEKFKGKATLTADKSSSTAYMQLNSLTSEDSAVYFCKRSLGRGGPYYFDYWGQGTTVTVSS VL: DIVLTQAAPSLPVTPGESVSISCRSSKSLLHSNGNTYLYWFLQRPGQSPQLLIYRMSNLASGVPDRFSGSGSGTAFTLRISRVEAEDVGVYYCMQHREYPVTFGSGPN
